From publication PMC13475435
These are yes or no findings as the source states them, for the method shown. In cells and extracts the contact can be indirect. Some entries that bind do so weakly or less than the wild type. For some assays here: Where a sequence is shown, tags or fusion partners need not be part of it.

Chains of the proteins cited; added tags and fusions are not shown. Lines headed by an entry give the natural chain unless they say otherwise; changes in a name come on top.
UniProt A2ABV5: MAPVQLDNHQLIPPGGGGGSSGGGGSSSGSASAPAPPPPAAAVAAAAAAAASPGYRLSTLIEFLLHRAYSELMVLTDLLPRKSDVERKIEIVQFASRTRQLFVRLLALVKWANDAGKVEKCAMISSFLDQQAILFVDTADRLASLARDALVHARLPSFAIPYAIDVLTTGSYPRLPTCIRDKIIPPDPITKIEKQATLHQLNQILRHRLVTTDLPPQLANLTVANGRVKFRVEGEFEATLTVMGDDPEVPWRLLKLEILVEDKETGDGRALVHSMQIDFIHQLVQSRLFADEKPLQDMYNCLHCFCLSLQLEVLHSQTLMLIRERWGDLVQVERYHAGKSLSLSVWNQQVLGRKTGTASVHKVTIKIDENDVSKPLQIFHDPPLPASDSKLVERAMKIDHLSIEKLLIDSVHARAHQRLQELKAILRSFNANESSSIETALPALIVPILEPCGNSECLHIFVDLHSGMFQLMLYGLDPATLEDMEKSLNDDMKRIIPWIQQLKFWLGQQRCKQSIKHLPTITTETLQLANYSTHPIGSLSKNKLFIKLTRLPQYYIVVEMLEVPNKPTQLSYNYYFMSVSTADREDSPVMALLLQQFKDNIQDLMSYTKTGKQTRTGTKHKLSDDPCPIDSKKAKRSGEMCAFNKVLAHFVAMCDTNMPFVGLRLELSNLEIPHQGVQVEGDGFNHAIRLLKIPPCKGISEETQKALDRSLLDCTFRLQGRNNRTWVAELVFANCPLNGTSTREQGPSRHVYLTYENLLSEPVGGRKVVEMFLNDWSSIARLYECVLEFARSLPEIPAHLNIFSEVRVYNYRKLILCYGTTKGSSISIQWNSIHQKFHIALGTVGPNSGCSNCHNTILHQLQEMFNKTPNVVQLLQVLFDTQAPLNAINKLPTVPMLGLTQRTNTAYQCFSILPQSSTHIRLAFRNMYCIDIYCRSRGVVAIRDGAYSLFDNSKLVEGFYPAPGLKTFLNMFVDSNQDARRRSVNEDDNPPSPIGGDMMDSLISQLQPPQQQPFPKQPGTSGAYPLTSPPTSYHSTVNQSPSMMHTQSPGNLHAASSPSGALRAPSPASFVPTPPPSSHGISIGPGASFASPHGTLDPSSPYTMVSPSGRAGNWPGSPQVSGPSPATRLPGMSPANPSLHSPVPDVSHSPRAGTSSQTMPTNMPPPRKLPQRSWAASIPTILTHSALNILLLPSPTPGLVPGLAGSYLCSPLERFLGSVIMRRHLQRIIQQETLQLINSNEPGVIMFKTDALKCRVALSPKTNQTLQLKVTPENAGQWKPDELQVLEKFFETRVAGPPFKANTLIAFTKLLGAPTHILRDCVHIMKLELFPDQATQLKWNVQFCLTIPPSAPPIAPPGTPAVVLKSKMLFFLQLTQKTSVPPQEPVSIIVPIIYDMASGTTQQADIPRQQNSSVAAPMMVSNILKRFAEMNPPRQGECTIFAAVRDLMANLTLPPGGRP
UniProt O60244: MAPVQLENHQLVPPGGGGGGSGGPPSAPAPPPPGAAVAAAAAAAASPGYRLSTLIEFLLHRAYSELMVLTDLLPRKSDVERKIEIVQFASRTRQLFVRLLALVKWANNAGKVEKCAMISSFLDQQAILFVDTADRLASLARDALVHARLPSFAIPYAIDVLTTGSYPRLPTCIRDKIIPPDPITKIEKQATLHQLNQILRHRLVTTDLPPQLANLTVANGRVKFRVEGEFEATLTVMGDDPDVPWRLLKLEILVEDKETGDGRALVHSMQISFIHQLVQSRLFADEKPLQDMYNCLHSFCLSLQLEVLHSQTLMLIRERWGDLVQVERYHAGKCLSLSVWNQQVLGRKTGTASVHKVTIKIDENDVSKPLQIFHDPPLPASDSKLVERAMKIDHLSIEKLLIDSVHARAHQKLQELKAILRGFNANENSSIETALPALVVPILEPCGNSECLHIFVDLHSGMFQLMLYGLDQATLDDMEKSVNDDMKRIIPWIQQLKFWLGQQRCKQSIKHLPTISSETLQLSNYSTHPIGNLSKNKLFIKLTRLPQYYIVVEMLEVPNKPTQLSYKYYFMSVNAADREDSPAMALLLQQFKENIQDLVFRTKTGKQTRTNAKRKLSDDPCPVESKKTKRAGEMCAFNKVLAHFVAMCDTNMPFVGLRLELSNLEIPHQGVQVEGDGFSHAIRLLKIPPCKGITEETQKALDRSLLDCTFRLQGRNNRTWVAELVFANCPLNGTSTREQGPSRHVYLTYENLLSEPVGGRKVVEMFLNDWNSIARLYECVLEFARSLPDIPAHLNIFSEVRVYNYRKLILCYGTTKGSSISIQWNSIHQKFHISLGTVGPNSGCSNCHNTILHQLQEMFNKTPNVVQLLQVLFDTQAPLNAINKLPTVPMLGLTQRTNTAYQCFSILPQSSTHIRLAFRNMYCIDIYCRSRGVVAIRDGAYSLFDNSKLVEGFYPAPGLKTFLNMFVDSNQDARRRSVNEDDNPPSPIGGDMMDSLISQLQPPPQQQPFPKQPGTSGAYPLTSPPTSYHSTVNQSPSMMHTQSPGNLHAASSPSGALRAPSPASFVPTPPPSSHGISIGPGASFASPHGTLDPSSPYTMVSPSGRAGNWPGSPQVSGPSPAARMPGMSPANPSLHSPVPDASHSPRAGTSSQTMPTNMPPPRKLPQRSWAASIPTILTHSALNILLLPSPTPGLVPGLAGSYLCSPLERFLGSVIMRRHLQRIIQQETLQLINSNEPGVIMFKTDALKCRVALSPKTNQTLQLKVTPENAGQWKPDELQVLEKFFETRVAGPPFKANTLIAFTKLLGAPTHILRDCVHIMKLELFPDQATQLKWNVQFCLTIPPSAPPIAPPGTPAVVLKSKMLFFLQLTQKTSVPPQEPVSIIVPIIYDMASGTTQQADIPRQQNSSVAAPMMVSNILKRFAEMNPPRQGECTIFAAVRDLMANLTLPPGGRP

T1: zebrafish Med7 (endogenous in embryos) (zebrafish (endogenous in embryos)) (UniProt Q7ZV35)
T1 sequence: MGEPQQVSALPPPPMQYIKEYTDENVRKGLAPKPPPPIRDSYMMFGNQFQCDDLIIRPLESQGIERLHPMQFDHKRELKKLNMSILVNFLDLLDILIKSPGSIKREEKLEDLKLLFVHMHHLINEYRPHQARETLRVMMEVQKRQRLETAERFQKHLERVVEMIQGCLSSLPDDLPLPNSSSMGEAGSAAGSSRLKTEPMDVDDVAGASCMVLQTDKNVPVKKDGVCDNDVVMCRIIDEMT

T2: zebrafish Med17 (endogenous in embryos) (zebrafish (endogenous in embryos)) (UniProt Q08BY1)
T2 sequence: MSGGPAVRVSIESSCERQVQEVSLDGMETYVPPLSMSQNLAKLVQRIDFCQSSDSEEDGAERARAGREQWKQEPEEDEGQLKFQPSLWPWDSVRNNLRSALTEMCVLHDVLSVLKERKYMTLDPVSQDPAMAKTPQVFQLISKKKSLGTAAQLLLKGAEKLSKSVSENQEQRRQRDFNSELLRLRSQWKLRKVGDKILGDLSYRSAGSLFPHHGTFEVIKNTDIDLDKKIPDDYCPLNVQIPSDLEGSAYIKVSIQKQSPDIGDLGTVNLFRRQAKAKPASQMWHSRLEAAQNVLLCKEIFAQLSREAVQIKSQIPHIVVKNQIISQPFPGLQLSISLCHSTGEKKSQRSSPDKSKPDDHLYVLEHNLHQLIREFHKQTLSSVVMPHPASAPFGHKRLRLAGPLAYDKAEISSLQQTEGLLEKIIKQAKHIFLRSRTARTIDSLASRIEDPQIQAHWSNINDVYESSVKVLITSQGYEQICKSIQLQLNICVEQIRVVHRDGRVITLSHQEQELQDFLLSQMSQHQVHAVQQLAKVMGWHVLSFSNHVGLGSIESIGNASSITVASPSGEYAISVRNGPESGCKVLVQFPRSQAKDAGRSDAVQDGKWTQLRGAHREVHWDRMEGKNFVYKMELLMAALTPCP


Experiments:
[1] = target: T1, zebrafish Med7 (endogenous in embryos) (zebrafish (endogenous in embryos)); assay: co-IP; endogenous proteins of zebrafish embryos (wild type, the comparison for the med14 mutants); IP with anti-Med17 or anti-Med7 antibody, western blot
[2] = target: T2, zebrafish Med17 (endogenous in embryos) (zebrafish (endogenous in embryos)); assay: as above
[3] = target: mouse MED14, wild type (endogenous in MEFs) (mouse (endogenous in MEFs)) (UniProt A2ABV5); assay: co-IP; endogenous proteins of primary MEFs isolated from WT and I556V mice at E12.5; antibody of the IP not stated; western blot for MED6, MED7, MED8, MED17, RPB1
[4] = target: mouse MED14-I556V (endogenous in MEFs of knock-in mice) (mouse (endogenous in MEFs)) (UniProt A2ABV5); assay: as above
[5] = target: Flag-tagged human MED14 I550V variant (hMED14-I550V) (human) (UniProt O60244); assay: co-IP; HEK293T co-transfected with Flag-hMED14 (WT or I550V) and the partner; lysed in RIPA buffer 24 h after transfection; IP with anti-Flag antibody, protein A-Sepharose, overnight at 4 °C; western blot
[6] = target: Flag-tagged WT human MED14 (hMED14) (human) (UniProt O60244); assay: as above

Binder | binding [3] | binding [4] | binding [5] | binding [6] | further results
zebrafish Med6 (endogenous in embryos) (protein, UniProt Q6IQ63 1-254) MATVDLRDNLLGISWVDSGWVPILNPSNVLEYFSERSNPFYDRTCNNEVVKMQRSTLDHLTQLVGVEYILLHTQEPILYIIRKQQRQSPTQVIPLADYYIIAGVVYQAPDLGSVISSRALSAVHGIQSAFDEAMSFCRYHPSKGYWWHFKDQEEKERVKPKSKRKEEPSSLFQRQRVDTLLLDLRNKFPPTFYQTKPGEKPVPVEVKKEPEVPVETVKPQEERETKPPAPPAPPRPPPQTTPNKPPPEKRARVQ | – | – | – | – | binding [1]: binds; binding [2]: binds
mouse MED6 (endogenous in MEFs) (protein, UniProt Q921D4 1-246) MAAVDIRDNLLGISWVDSSWIPILNSGSVLDYFSERSNPFYDRTCNNEVVKMQRLTLEHLNQMVGIEYILLHAQEPILFIIRKQQRQSPAQVIPLADYYIIAGVIYQAPDLGSVINSRVLTAVHGIQSAFDEAMSYCRYHPSKGYWWHFKDHEEQEKVKPKAKRKEEPSSIFQRQRVDALLIDLRQKFPPRFVQQKSGEKPVPVDQAKKEAEPLPETVKSEEKESTKNIQQTVSTKGPPEKRMRLQ | binds | binds | – | – | –
mouse MED7 (endogenous in MEFs) (protein, UniProt Q9CZB6 1-233) MGEPQQVSALPPPPMQYIKEYTDENIQEGLAPKPPPPIKDSYMMFGNQFQCDDLIIRPLESQGIERLHPMQFDHKKELRKLNMSILINFLDLLDILIRSPGSIKREEKLEDLKLLFVHVHHLINEYRPHQARETLRVMMEVQKRQRLETAERFQKHLERVIEMIQNCLASLPDDLPHSEAGMRVKAEPMDTDDNSNCPGQNEQQRESSGHRRDQIIEKDAALCVLIDEMNERP | binds | binds weakly | – | – | –
zebrafish Med8 (endogenous in embryos) (protein, UniProt Q6NYT1 1-267) MQQREEKQLEAFLESLVARVAHLKGSLQSFIYKLENEYDRLTWPSVLDNFALISGQLNTINKLLRNEKTPSYKSQVIIPLLLSPDRDEELAKLTEHRVPVFSHEIVPDHLRTKPDPEVEEQEKHLSAEAARIGPEVAQKQIQALNKLCSNLLEKLNNPREDRDSETSALRQNKPSFNPADTNALVAAVGFGKGLSKCRPPGPVAPGHPGQPMMQTGPTLQQVTIAGASGHQAGMSGPVAPQQPGQPGKIPSNIKTNIKSASMHPYNR | – | – | – | – | binding [1]: binds; binding [2]: binds
Myc-tagged human MED7 (hMED7) (protein, UniProt O43513 1-233) MGEPQQVSALPPPPMQYIKEYTDENIQEGLAPKPPPPIKDSYMMFGNQFQCDDLIIRPLESQGIERLHPMQFDHKKELRKLNMSILINFLDLLDILIRSPGSIKREEKLEDLKLLFVHVHHLINEYRPHQARETLRVMMEVQKRQRLETAERFQKHLERVIEMIQNCLASLPDDLPHSEAGMRVKTEPMDADDSNNCTGQNEHQRENSGHRRDQIIEKDAALCVLIDEMNERP | – | – | binds weakly | binds | –
human MED8 (hMED8) (protein, UniProt Q96G25 1-268) MQREEKQLEASLDALLSQVADLKNSLGSFICKLENEYGRLTWPSVLDSFALLSGQLNTLNKVLKHEKTPLFRNQVIIPLVLSPDRDEDLMRQTEGRVPVFSHEVVPDHLRTKPDPEVEEQEKQLTTDAARIGADAAQKQIQSLNKMCSNLLEKISKEERESESGGLRPNKQTFNPTDTNALVAAVAFGKGLSNWRPSGSSGPGQAGQPGAGTILAGTSGLQQVQMAGAPSQQQPMLSGVQMAQAGQPGKMPSGIKTNIKSASMHPYQR | – | – | binds | binds | –

Second part, led by results:

binding [3] | binding [4] | binding [5] | binding [6] | Binder | further results
binds | binds | – | – | mouse MED8 (endogenous in MEFs) (protein, UniProt Q9D7W5 1-268) MQREEKQLEASLDALLNQVADLKNSLGSFIYKLENEYDRLTWPSVLDSFALLSGQLNTLNKVLKHEKTPLFRNQVIIPLVLSPDRDEDLMRQTEGRVPVFSHEVVPDHLRTKPDPEVEEQEKQLTTDAARIGADAAQKQIQSLNKMCSNLLEKISKEERESESGGLRPNKQTFNPGDTNALVAAVAFGKGLSNWRPSGSSGPGQPGQPGAGTILAGASGLPQVQMPGAPNQQQPMLSGVQMAQAGQPGKMPSGIKTNIKSASMHPYQR | –
binds | binds weakly | – | – | mouse MED17 (endogenous in MEFs) (protein, UniProt Q8VCD5 1-649) MSGVRAVRISIESACEKQVQEVGLDGTETYLQPLSMSQNLARLAQRIDFSQGSGSEEEEAAGPDGDAPDWGGAGADQDDEEGLVKFQPSLWPWDSVRNNLRSALTEMCVLYDVLSIVRDKKFMTLDPVSQDALPPKQSPQTLQLISKKKSLAGAAQILLKGAERLTKSVAENQENKLQRDFNSELLRLRQHWKLRKVGDKILGDLSYRSAGSLFPHHGTFEVIKNTDIDLDKKIPEDYCPLDVQIPSDLEGSAYIKVSIQKQAPDIGDLGTVNLFKRPLPKSKPGSPHWQTKLEAAQNVLLCKEIFAQLSREAVQIKSQIPHIVVKNQIISQPFPSLQLSISLCHSSDDKKSQKCAAEKPGQEDHLYVLEHNLHLLIREFHKQTLSSIVMPHPASAPFGHKRMRLSGPQAFDKNEINSIQSTEGLLEKIIKQAKHIFLRSRTAATIDSLASRIEDPQIQAHWSNINDVYESSVKVLITSQGYEQICKSIQLQLNIGVEQVRVVHRDGRVIMLSHQEQELQDFLLSQMSQHQVHAVQQLAKVMGWQVLSFSNHVGLGPIESIGNASAITVASPSGDYAISVRNGPESGSKIMVQFPRNQCKDLPKSDVLQDSKWSHLRGPFKEVQWNKMEGRNFVYKMELLMSALSPCLL | –
– | – | binds | binds | Myc-tagged human MED17 (hMED17) (protein, UniProt Q9NVC6 1-651) MSGVRAVRISIESACEKQVHEVGLDGTETYLPPLSMSQNLARLAQRIDFSQGSGSEEEEAAGTEGDAQEWPGAGSSADQDDEEGVVKFQPSLWPWDSVRNNLRSALTEMCVLYDVLSIVRDKKFMTLDPVSQDALPPKQNPQTLQLISKKKSLAGAAQILLKGAERLTKSVTENQENKLQRDFNSELLRLRQHWKLRKVGDKILGDLSYRSAGSLFPHHGTFEVIKNTDLDLDKKIPEDYCPLDVQIPSDLEGSAYIKVSIQKQAPDIGDLGTVNLFKRPLPKSKPGSPHWQTKLEAAQNVLLCKEIFAQLSREAVQIKSQVPHIVVKNQIISQPFPSLQLSISLCHSSNDKKSQKFATEKQCPEDHLYVLEHNLHLLIREFHKQTLSSIMMPHPASAPFGHKRMRLSGPQAFDKNEINSLQSSEGLLEKIIKQAKHIFLRSRAAATIDSLASRIEDPQIQAHWSNINDVYESSVKVLITSQGYEQICKSIQLQLNIGVEQIRVVHRDGRVITLSYQEQELQDFLLSQMSQHQVHAVQQLAKVMGWQVLSFSNHVGLGPIESIGNASAITVASPSGDYAISVRNGPESGSKIMVQFPRNQCKDLPKSDVLQDNKWSHLRGPFKEVQWNKMEGRNFVYKMELLMSALSPCLL | –
– | – | binds | binds | human MED6 (hMED6) (protein, UniProt O75586 1-246) MAAVDIRDNLLGISWVDSSWIPILNSGSVLDYFSERSNPFYDRTCNNEVVKMQRLTLEHLNQMVGIEYILLHAQEPILFIIRKQQRQSPAQVIPLADYYIIAGVIYQAPDLGSVINSRVLTAVHGIQSAFDEAMSYCRYHPSKGYWWHFKDHEEQDKVRPKAKRKEEPSSIFQRQRVDALLLDLRQKFPPKFVQLKPGEKPVPVDQTKKEAEPIPETVKPEEKETTKNVQQTVSAKGPPEKRMRLQ | –
